# PubChem BioAssay AID2685 (National Center for Advancing Translational Sciences (NCATS), 2010)
# The other results are listed elsewhere or left out. Shown are side measurements of this screen, not its main read-out; they come without a call. Compounds called inactive in the main read-out are mostly missing here. The note in brackets gives the kind of curve behind each potency; many fits are weak.
# Assay: qHTS Assay for Lipid Storage Modulators in Drosophila S3 Cells;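 as to cell number change: cells counted by Cell Tracker Red CMTPX staining in the red channel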
# Conditions: BODIPY lipid droplet fluorescence, 18-24 h; for cell number change: measured here: cell count max response, cells fed with added oleic acid
# Summary of the method: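 Laser-scanning cytometry quantifies lipid droplet accumulation (500–530 nm total intensity; droplet/cell object ratio) in oleic acid-fed (400 uM added) Drosophila S3 cells treated with a concentration series. 20 uM Triacsin C defined 100% inhibition.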
# [1] = measured here: cell number channel AC50, cells fed with added oleic acid
# [2] = measured here: lipid fluorescence (Fed channel) AC50, cells fed with added oleic acid
Structure (SMILES),cell number change [%],AC50 [1],AC50 [2]
CN(C)C(=O)C1OC(C)(C)OC1C(=O)N(C)C (centres undefined),-71,"29.1 µM [falling, single point]","29.1 µM [falling, single point]"
Cc1cc2c(=O)n(C)c(SCC(=O)Nc3ccccc3C)nc2s1,-96.7,"16.4 µM [falling, partial curve, poor fit]","29.1 µM [falling, partial curve, poor fit]"
CCC1=[N+](C)CCn2c(C)ccc21,-30.2,"0.259 µM [falling, full curve]","10.3 µM [falling, partial curve]"
CC(=O)O[C@H]1C[C@@]2(C)[C@@H](C[C@@H](O)[C@H]3[C@@]4(C)CC[C@@H](O)[C@@H](C)[C@@H]4CC[C@@]32C)/C1=C(\CCC=C(C)C)C(=O)O,13.8,–,"3.66 µM [rising, full curve, poor fit]"
CC1CC(=O)c2c(cc3c(-c4c(O)cc(O)c5c(O)c6c(cc45)OC(C)CC6=O)c(O)cc(O)c3c2O)O1 (centres undefined),-69.5,"18.4 µM [falling, single point]","18.4 µM [falling, single point]"
O=C(COc1cccc(C(F)(F)F)c1)NCC(c1cccs1)N1CCOCC1 (centres undefined),-5.32,–,"2.59 µM [rising, partial curve, poor fit]"
CN1CCN(c2nc(-c3ccccc3)nc(-c3ccc(F)cc3)c2C#N)CC1,-5.08,"6.51 µM [rising, single point]",–
O=C(Cc1cccs1)N1CCN(c2nc(-c3ccc(Cl)cc3)cs2)CC1,-12.1,–,"0.651 µM [falling, full curve]"
C=CCNC(=O)c1c(N)n(-c2ccc3c(c2)OCO3)c2nc3ccccc3nc12,-0.406,–,–
CCN(CC)CCNC(=O)Cn1cnc2sc(C)c(S(=O)(=O)N3CCC(C)CC3)c2c1=O,-7.5,–,–
CCCCCCn1c(N2CCN(c3ccccc3)CC2)nc2c1c(=O)n(C)c(=O)n2C,–,–,"1.64 µM [rising, partial curve]"
Cc1ccc(CN2CC(C(=O)NCCC3=CCCCC3)CC2=O)cc1 (centres undefined),-37.6,"16.4 µM [falling, single point]","29.1 µM [falling, single point]"
COc1ccccc1NC(=O)NCC1CC1(Cl)Cl (centres undefined),9.46,–,"29.1 µM [falling, single point]"
O=C(OCC#CCSc1nnc(-c2ccc([N+](=O)[O-])cc2)o1)c1cccs1,22.3,–,"18.4 µM [falling, partial curve]"
c1ccc(-c2csc(-n3cccn3)n2)cc1,30.6,"2.06 µM [rising, partial curve]",–
O=C(OCC(=O)N1CCCc2ccccc21)c1ccccc1NCCO,-15.4,–,–
Cc1sc(NC(=O)c2ccco2)c(CN2CCN(c3ccccc3)CC2)c1C,–,"0.651 µM [rising, single point]",–
CC1CCN(C(=O)c2ccc(S(=O)(=O)N3CCCC3)cc2)CC1,-11.3,–,"29.1 µM [falling, single point]"

Structure (SMILES),cell number change [%],AC50 [1],AC50 [2]
CC(C)CC(=O)N1CCN(S(=O)(=O)c2ccc(F)cc2)CC1,60,"23.1 µM [rising, single point]",–
O=C(O)C1CCCCC1C(=O)NCc1ccccn1 (centres undefined),92.3,"29.1 µM [rising, single point]","29.1 µM [rising, single point]"
O=C1OCC2=C1C(c1ccccc1)CC(=O)N2c1ccc(F)cc1 (centres undefined),7.51,–,–
Cn1c(=O)c2c(-c3ccccc3)n(-c3ccccc3O)cc2n(C)c1=O,17.4,–,"1.3 µM [rising, full curve]"
CCC(C)c1ccccc1NC(=O)COC(=O)c1ccc2[nH]c3c(c2c1)CCCC3 (centres undefined),-60.7,"16.4 µM [falling, partial curve, poor fit]","0.13 µM [falling, full curve, poor fit]"
CCOC(=O)C1CCN(Cc2ccc(C(=O)OC)cc2)CC1,3.77,"4.11 µM [falling, single point]",–
O=C(N/N=C/C(Br)=C/c1ccccc1)c1ccc([N+](=O)[O-])cc1,-26,–,"32.6 µM [falling, single point]"
CC1CCCCN1CCNC(=O)C1CC(=O)N(c2ccc(F)c(Cl)c2)C1 (centres undefined),-37.1,"5.17 µM [falling, partial curve]","5.8 µM [falling, partial curve]"
CCOC(=O)c1c(NC(=O)C2C3C=CC(CC3)C2C(=O)O)sc(C)c1CC (centres undefined),11.5,–,"0.116 µM [falling, full curve, poor fit]"
CCn1c(O)c(N=NC(=O)c2cccs2)c2ccccc21,10.3,"0.00517 µM [rising, full curve, poor fit]",–
COC(=O)c1c(-c2cccnc2)csc1NC(=O)c1cc(C)on1,12.4,–,–
COCCN1CCN(C(=O)c2ccc3oc(CCc4ccccc4)nc3c2)CC1,-4.05,–,"14.6 µM [rising, single point]"
CCOC(=O)Cc1csc2nc3sc(C)c(C)c3c(=O)n12,41.5,"0.92 µM [rising, full curve, poor fit]",–
CCCOc1nc2ccccc2cc1/C=C/C(=O)O,31.9,"0.146 µM [rising, full curve, poor fit]","0.13 µM [rising, full curve, poor fit]"
CC1CCCCC1NC(=O)CO/N=C/c1ccc(OC(F)F)cc1 (centres undefined),20.9,–,"0.447 µM [rising, full curve, poor fit]"
N#CC1=C(SCC(=O)Nc2nccs2)NC(=O)CC1c1ccccc1 (centres undefined),14.8,"0.184 µM [rising, partial curve, poor fit]","0.517 µM [rising, partial curve, poor fit]"
CC1=CC(=C(C#N)C#N)C=C(C)N1CCN1CCN(C(=O)Nc2ccc(Cl)c(Cl)c2)CC1,20.3,"0.058 µM [rising, full curve, poor fit]",–
CCOc1c(C(N)=O)c(-c2ccccc2)c2c(=O)[nH]c3ccccc3n12,–,"0.731 µM [rising, full curve, poor fit]",–

# Grouped by structure: those above containing an aryl thioether with sulfur outside any ring
Structure (SMILES),cell number change [%],AC50 [1],AC50 [2]
Cc1cc2c(=O)n(C)c(SCC(=O)Nc3ccccc3C)nc2s1,-96.7,"16.4 µM [falling, partial curve, poor fit]","29.1 µM [falling, partial curve, poor fit]"
O=C(OCC#CCSc1nnc(-c2ccc([N+](=O)[O-])cc2)o1)c1cccs1,22.3,–,"18.4 µM [falling, partial curve]"
